This note sets out measurements from patent US20240343803A1.

Amino acid sequences for entries named in this document (tags omitted). A change or cut given only in a name is not applied to a line headed by its entry.
UniProt Q6DKI7: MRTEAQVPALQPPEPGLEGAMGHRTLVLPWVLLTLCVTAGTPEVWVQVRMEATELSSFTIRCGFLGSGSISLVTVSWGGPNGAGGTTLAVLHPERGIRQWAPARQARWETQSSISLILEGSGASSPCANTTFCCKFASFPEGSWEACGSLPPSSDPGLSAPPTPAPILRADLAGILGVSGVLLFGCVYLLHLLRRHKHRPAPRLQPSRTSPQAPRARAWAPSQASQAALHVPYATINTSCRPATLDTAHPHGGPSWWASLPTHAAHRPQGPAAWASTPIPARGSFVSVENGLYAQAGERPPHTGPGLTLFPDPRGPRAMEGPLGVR

B1: TIGIT-006-H5L3 (antibody, V domains shown)
VH: EVQLQESGPGLVKPSETLSLTCAVSGYSMTSDYWNWIRQPPGKKLEYIGYISYSGRTYYNPSLKSRVTISRDTSKNQFSLKLSSVTAADTAVYYCARGDYSNYGGAMYDWGQGTTVTVSS
VL: DIVMTQSPDSLAVSLGERATINCRASQGVSTTIAWYQQKPGQSPKLLIYSASYRYTGVPRFSGSGSGTDFTLTISSLQAEDVAVYYCQQYYSSPFTFGGGTKVEIK
B2: TIGIT-CHI-002 (antibody, V domains shown)
VH: EVQLQESGPGLAKPSQTLSLACSVTGYSITSDSWNWIRKFPGNKLEYMGYISYSGNTYYNPSLKSRISITRDTSKNQFYLQLNSVTTEDTATYYCARLDFSNYGGAVDYWGQGTSVTVSS
VL: DIVMTQSHTFMSTSVGDRVSITCKASQNVRTAVAWYQQKPGQSPKLMIYSASYRYTGVPDRFTGSGSGTDFTFTISSVQAEDLAVYYCQQYYTTPWTFGGGAKLEIQ
B3: TIGIT-CHI-006 (antibody, V domains shown)
VH: B2 VH with L18P, A21T, I29M, S33Y, N56R, L98G, F100Y, V107M, D108Y, Y109D
VL: DIVMTQSHKFMSTSVGDRVSITCRASQGVSTTIAWYQQKPGQSPKLLIYSASYRYTGVPDRFTGSGSGTDFTFTISGVQAEDLAVYYCQQYYSSPFTFGGGTKLEIK
B4: TIGIT-CHI-005 (antibody, V domains shown)
VH: QVQLQQSGAELVRPGTSVKVSCKASGYAFTNYLIEWVKQRPGQGLEWIGVINPGSGGTNYKEKFKGKATLTADKSSSTAYMQLSSLTSEDSAVYFCARGEYFFFDYWGQGTTLTVSS
VL: DIVMTQSHKFMSTSVGDRVSITCKASQHVSNGVAWYQHKPGQSPKLLIYSASYRYTGVPDRFTGTGSGTDFTFTISSVQAEDLAVYYCQQHYNTPHTFGGGTKLEIK
B5: TIGIT-CHI-070 (antibody, V domains shown)
VH: QVQLQQPGTELVKPGASVKLSCRASGYTFTNYYMHWVKQRPGRGLEWIGRIDPDSGGSKYNEKFKSKATLTVDKLSSTAYMQLSSLTSEDSAVYYCAREGHYGFYSDYWGQGTTLTVSS
VL: DIQMTQSPASLSASVGETVTITCRVSENIYSYLAWYQQKQGKSPQLLVYNAKTLAEGVPSRFSGSGSGTQFSLKINSLQPEDFGNYYCQHHYGNPLTFGAGTKLDLK
B6: PVRIG-A11 (VHH, not shown: a dimerising Fc or GST)
VHH: QLQLVESGGGLVQPGGSLRLSCAASGFTDDYYAIGWFRQAPGKEREGVSCISGSGGSTNYEDSVKGRFAISRDNAKNMVYLQMNDLKPEDTAVYYCAADPFWSAPCTGHNDRYFDVWGQGTLVTVSS
B7: PVRIG-A43 (VHH, not shown: a dimerising Fc or GST)
VHH: QVQLVESGGGLVQSGGSLRLSCAASGRTRSMYVMGWFRQAPGKEREFVGRIKWSGDTTYTSYADFVKGRFTLYGNQARNTVYLQMNSLKVEDTAVYYCAGRVVPLPSRQRDRYDYWGQGTQVTVSS
B8: PVRIG-A75 (VHH, not shown: a dimerising Fc or GST)
VHH: QLQLVESGGGLVQSGGSLRLSCAASGRTRSMYVMGWFRQAPGKEREFVGRIKWSGDTTYTSYADFVKGRFTLYGNQARNTVYLQMNSLKPEDTAVYSCAASKFPVSGVPEHYDYWGQGTQVTVSS
B9: PVRIG-A105 (VHH, not shown: a dimerising Fc or GST)
VHH: EVQLVESGGGLVQAGGSLRLSCAASGRTFDRHTMTWFRQAPGKEREFVATASRIPGDTYYSHSVKGRFTISRDNAKNTVYLQLNNLKPEDTAVYYCAATSAYCSEVDCYEKGSWYDNWGQGIQVTVSS
B10: PVRIG-A117 (VHH, not shown: a dimerising Fc or GST)
VHH: EVQVVESGGGLVQAGGSLRLSCTASEHIYDLYIMGWYRQAPGKDRELVATITYTGSIYIADSVKDRFTISRGNAKNTVSLQMSGLKPEDTAVYYCNADPSGLGRKLYWGQGTQVTVSS
B11: PVRIG-A15 (VHH, not shown: a dimerising Fc or GST)
VHH: QVQLVESGGGLVQAGGSLRLSCVASGRTFSANTMAWFRQAPGKEREFVAYTRWTDDNTDYASYADFVKGRFTAFRDNTRNTMYLQMNRLRPEDTAVYYCAAATTRGTYYSAGDYNSWGQGTQVTVSS
B12: PVRIG-A50 (VHH, not shown: a dimerising Fc or GST)
VHH: EVQLVESGGGLVQPGGSLRLSCAASGFTFSYYDMSWVRQAPGKGLEWVSTINSNGGRTSYVDSVKGRFTISRDNTKNTLYLQMNSLKPEDTAVYYCVEGDPHNFGLENLSLRDFGSWGQGTQVTVSS
B13: PVRIG-A118 (VHH, not shown: a dimerising Fc or GST)
VHH: QVQLVESGGGLVQAGGSLRLSCAASETYFDLYVMGWYRQAPGKDRELVATITYTGSIKIVDSVKDRFTISRGDAKNTVSLQMSSLKPEDTAVYFCNADPSGLGRKVYWGQGTQVTVSS
B14: PVRIG-A113 (VHH, not shown: a dimerising Fc or GST)
VHH: QLQLVESGGGLVQSGGSLRLSCAASGRTRSMYVMGWFRQAPGKEREFVGRIKWSGDTTYTSYADFVKGRFTLYGNQARNTVYLQMNSLKPEDTAVYYCAALPSDYDYRAASYGVDYWGKGTLVTVSS
B15: PVRIG-A105-H1 (VHH)
VHH: EVQLVESGGGLVQPGGSLRLSCAASGRTFDRHTMSWFRQAPGKEREFVATASRIPGDTYYVDSVKGRFTISRDNAKNSLYLQMNSLRAEDTAVYYCAATSAYCSEVDCYEKGSWYDNWGQGTMVTVSS
B16: PVRIG-A105-H2 (VHH)
VHH: B15 VHH with S35T
B17: PVRIG-A105-H4 (VHH)
VHH: B15 VHH with S35T, V61S, D62H
B18: PVRIG-A105-H5 (VHH)
VHH: B15 VHH with S35T, T122I, M123Q
B19: PVRIG-A105-H3 (VHH)
VHH: B15 VHH with S35T, L79V
B20: PVRIG-A118-H1 (VHH)
VHH: EVQLVESGGGLVQPGGSLRLSCAASETYFDLYVMGWYRQAPGKDRELVATITYTGSIYYVDSVKGRFTISRDNAKNSLYLQMNSLRAEDTAVYYCNADPSGLGRKVYWGQGTMVTVSS
B21: PVRIG-A118-H7 (VHH)
VHH: B20 VHH with Y58K, D72G, N73D, Y94F
B22: PVRIG-A118-H2 (VHH)
VHH: B20 VHH with Y58K
B23: PVRIG-A118-H4 (VHH)
VHH: B20 VHH with Y58K, D72G, N73D, Y79S
B24: PVRIG-A118-H5 (VHH)
VHH: B20 VHH with Y58K, D72G, N73D, L78V
B25: PVRIG-A118-H3 (VHH)
VHH: B20 VHH with Y58K, D72G, N73D
B26: PVRIG-A118-H6 (VHH)
VHH: B20 VHH with Y58K, Y59I, D72G, N73D
B27: PVRIG-A50-H2a (VHH)
VHH: B12 VHH with G55A, K87R, P88A, N108S, Q122M
B28: PVRIG-A50-H1e (VHH)
VHH: B12 VHH with G55A, T75S, K87R, P88A, N108S, Q122M
B29: PVRIG-A50-H1d (VHH)
VHH: B12 VHH with T75S, K87R, P88A, N108S, Q122M
B30: PVRIG-A50-H1c (VHH)
VHH: B12 VHH with N54D, T75S, K87R, P88A, S110A, Q122M
B31: PVRIG-A50-H1b (VHH)
VHH: B12 VHH with N54D, T75S, K87R, P88A, N108S, Q122M
B32: PVRIG-A50-H1a (VHH)
VHH: B12 VHH with N54D, T75S, K87R, P88A, Q122M
B33: PVRIG-A50-H1 (VHH)
VHH: B12 VHH with T75S, K87R, P88A, Q122M

Where a chain is given by its changes, count along the chain named. These are yes or no findings as the source states them, for the method shown. Binding calls can cover weak binding; strength is not graded here.

The first assay addresses full-length cynomolgus monkey TIGIT on CHO-K1 cells (CHO-K1 cynomolgus monkey TIGIT) (cynomolgus monkey). Nature of the assay: FACS.
Regarding B1, the binding result is given as “binds”.

In the case of B2, the binding entry is on record as “binds”.

Regarding B3, the binding entry is reported as “binds”.

As to B4, the binding result is “binds”.

B5: the binding entry was “binds”.

The next assay concerns the target human PVRIG-his (AcroBiosystems, Cat NO. PVG-H52H4) (human) (UniProt Q6DKI7). Nature of the assay: ELISA.
Regarding B6, the binding result was “binds”.

B7: the binding entry is given as “binds”.

For the molecule B8, the binding entry is listed as “binds”.

For the molecule B9, the binding result is on record as “binds”.

Turning to B10, the binding result is “binds”.

On to B11, for which the binding entry is “binds”.

Consider B12, for which the binding result is “binds”.

For B13, the binding result is given as “binds”.

Regarding B14, the binding entry is “binds”.

For a further assay the target is unchanged. In words: competition ELISA on coated human PVRIG-his; blocked ligand human PVRL2-mFc.
Take B6: the binding result is “binds”.

For the molecule B7, the binding entry was “binds”.

Regarding B8, the binding entry is “binds”.

As to B9, the binding entry is listed as “binds”.

On to B10, for which the binding result is “binds”.

With B11, the binding result is listed as “binds”.

With B12, the binding result is given as “binds”.

For B13, the binding result is given as “binds”.

Take B14: the binding entry is recorded as “binds”.

For another assay the target is unchanged. Nature of the assay: BIAcore.
Take B6: the binding result is listed as “binds”.

For B7, the binding entry is listed as “binds”.

Take B15: the binding entry was “binds”.

Take B16: the binding result is recorded as “binds”.

Turning to B8, the binding entry was “binds”.

For B9, the binding result was “binds”.

In the case of B17, the binding entry is reported as “binds”.

Consider B18, for which the binding result is on record as “binds”.

For B19, the binding entry is recorded as “binds”.

Turning to B10, the binding result is recorded as “binds”.

For the molecule B11, the binding result is listed as “binds”.

On to B20, for which the binding result is on record as “binds”.

With B21, the binding entry was “binds”.

As for B22, the binding entry is “binds”.

As to B23, the binding result is “binds”.

Take B24: the binding entry was “binds”.

Take B25: the binding entry is reported as “binds”.

In the case of B26, the binding entry was “binds”.

On to B12, for which the binding entry is reported as “binds”.

Take B27: the binding result is listed as “binds”.

Turning to B28, the binding entry is “binds”.

As to B29, the binding result is “binds”.

Regarding B30, the binding entry is “binds”.

For the molecule B31, the binding entry is given as “binds”.

As to B32, the binding entry is “binds”.

Take B33: the binding entry is listed as “binds”.

Consider B13, for which the binding result is “binds”.

Turning to B14, the binding entry is recorded as “binds”.
